{"source": "patent US5198425", "about": "(dated 1993)", "assay": "general procedure: peptide synthesis; Boc-Leu-CH2-PAB resin", "settings": "whole synthesis, analytical HPLC, trifluoroacetate", "note": "Strings that start with PEPTIDE1 are HELM notation: dots part the residues, brackets hold end groups and non-standard residues."}
{"substance": "PEPTIDE1{[ac].T.D.D.L.S.N.F.Q.L}$$$$V2.0", "values": [{"measurement": "final HPLC purity", "value": "at least 95%"}]}
